Measured values from patent US7320890B2 (University of Utah Research Foundation, priority 2001, dated 2008).

Assay: general procedure: Fmoc solid-phase peptide synthesis; rink amide resin
Conditions: lipidation step, acetate (TFA replaced by acetic acid)

H-HHYRRRHKSRRRLHH-OH (SEQ ID NO:2)
final purity (method not given): >93%
step yield (with respect to starting amounts of peptide): >80%
